The whole screen tested about 340,000 compounds, of which about 4,500 (1.3%) were called active. The shares of active, inactive and inconclusive entries below differ from those in the screen. The call rests on the fitted dose curve; in most records, active means well fitted inhibition curve with a large enough effect; inconclusive means small, poorly fitted or top-dose-only effect, or another doubt; inactive means no such curve, though single readings can be large or run the other way. A potency beside an inconclusive call is a rough fit, not a confirmed value.
Target: DNA polymerase beta (Homo sapiens) (UniProt P06746)
Assay: qHTS Assay for Inhibitors of DNA Polymerase Beta
Conditions: Pol beta primer extension/strand displacement, fluorescence kinetic; activity change, negative = inhibition: at 114 µM (top of the series)
In short: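 Values derive from four-parameter Hill fits of normalized kinetic data: reads at 0 and 10 min following addition of 50 nM substrate to 10 nM Pol beta preincubated 15 min with compound.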
On the % scale 0 is the no-effect control and ±100 the full control effect; potency means the concentration at half of the fitted maximal effect.

Potency, inactive:
Cc1ccc(CNC(=O)c2cccc(NC(=O)N3CCSc4ncccc43)c2)cc1
CC1=C(C#N)c2nc(N)c(C#N)c(C)c2/C1=C\c1ccc(OCC(=O)O)c(Cl)c1
CC(C)(C)c1cc(NC(=O)CSc2nncs2)n(-c2ccccc2)n1
O=C(O)/C=C/c1ccc(S(=O)(=O)Nc2ccc(C(=O)NCC(=O)O)cc2)cc1
COCc1ccc(CN2CCC(n3nccc3NC(=O)CCOc3ccccc3)CC2)o1
Cc1ccc(CCNS(=O)(=O)c2ccc3c(c2)CCN3C(=O)CCC(=O)O)cc1
CCOc1cc(CNCCSc2nnnn2C)cc(Cl)c1OCc1ccc(Cl)cc1
O=C(NCC(c1cccnc1)N1CCc2ccccc2C1)C(=O)Nc1cccc(Cl)c1 (centres undefined)
Cc1cc(NC(=O)CSc2nc3ccccc3s2)no1
Cc1cccc(Nc2nc(NCc3ccco3)c3ccccc3n2)c1
Cc1[nH]n(C(N)=S)c(=O)c1C(c1ccccc1)C(C#N)C#N (centres undefined)
Cn1c(N=Nc2ccc(N3CCOCC3)cc2)[n+](C)c2ccccc21
Cc1ccc(-n2c(SCCC(C)C)nc3sc4c(c3c2=O)CC(C)(C)OC4)cc1
COc1ccc(N2CCN(C(=O)COc3ccc4c(C)cc(=O)oc4c3)CC2)cc1
Cc1cc(O)c(NC(=O)c2ccco2)cc1C
COc1ccccc1CNC(=O)CN1C(=O)c2cccnc2Oc2ccccc21
O=S(=O)(c1ccc(-c2ccccn2)s1)N1CCC2(CC1)OCCO2
CN(C)c1cccc(C(=O)N2CCC(c3ccncc3)CC2)c1

Potency, inconclusive:
O=C(Nc1ccon1)c1ccc(N2CCCCC2)c([N+](=O)[O-])c1 89.1 µM [inhibitor, single point]
O=C(NCc1ccco1)c1nc2nc(-c3cccs3)cc(C(F)(F)F)n2n1 39.8 µM [inhibitor, full curve]
c1ccc(COc2ccccc2CNCc2cccnc2)cc1 89.1 µM [inhibitor, single point]
CCc1ccc(C(=O)c2cn(CC(=O)Nc3cccc(C)c3C)c3nc(C)ccc3c2=O)cc1 2 µM [inhibitor, full curve, poor fit]
Cc1cccc(N2CCN(C(=O)/C=C/c3cccs3)CC2C)c1 (centres undefined) 0.708 µM [inhibitor, full curve, poor fit]
O=C(CSc1nnc(-c2ccco2)n1Cc1ccccc1)NC(=O)NCc1ccco1 63.1 µM [inhibitor, partial curve, poor fit]
COc1ccc(Nc2nnc(-c3ccncc3)s2)cc1Cl 0.794 µM [inhibitor, full curve, poor fit]
Cc1ccc2ccc3cc(C(=O)Nc4ccc(C)c(F)c4)nc3c2[nH]1 8.91 µM [inhibitor, full curve, poor fit]
CCN(CCn1cccn1)C(=O)CC1C(=O)NCCN1Cc1ccc(F)c(F)c1 (centres undefined) 89.1 µM [inhibitor, single point]
CC(C)C[C@H](NC(=O)c1nc[nH]c1C(=O)N1CCN(c2ccccc2)CC1)C(=O)OCc1ccccc1 89.1 µM [inhibitor, single point]
Cc1coc2c(C)c3oc(=O)c(CCC(=O)NCCC(=O)O)c(C)c3cc12 44.7 µM [inhibitor, partial curve, poor fit]
O=C(CNc1ccccc1Cl)c1ccc(Br)cc1 89.1 µM [inhibitor, single point]
CC(C)C(c1nnnn1CCc1ccccc1)N1CCC(C(N)=O)CC1 (centres undefined) 17.8 µM [inhibitor, full curve, poor fit]
CC(=O)Nc1ccc(-c2ccnc(-c3ccc(NC(C)=O)cc3)n2)cc1 39.8 µM [inhibitor, partial curve]
CCC(C)c1ccc(S(=O)(=O)N2CCN(C(=O)COc3ccc4c(C)cc(=O)oc4c3)CC2)cc1 (centres undefined) 28.2 µM [inhibitor, single point]
CCc1nn(CC(=O)NCCCN2CCN(C)CC2)c(=O)c2cc3occc3n12 39.8 µM [inhibitor, single point]
CN(C)C(=O)c1ccc2c(c1)C1C3CCC(C3)C1C(c1ccccc1)N2 (centres undefined) 89.1 µM [inhibitor, single point]
O=C(N/N=C/C=C/c1ccco1)c1cccc([N+](=O)[O-])c1 3.16 µM [inhibitor, partial curve]
NNC(=O)c1nc[nH]c1C(=O)Nc1ccccc1[N+](=O)[O-] 39.8 µM [inhibitor, partial curve, poor fit]
O=C(Cn1c(=O)n(Cc2ccco2)c(=O)c2sc3ccccc3c21)Nc1ccccc1C(F)(F)F 79.4 µM [inhibitor, single point]
O=[N+]([O-])c1ccc(-c2c[nH]c(=S)[nH]2)cc1 39.8 µM [inhibitor, partial curve]
Cc1ccc(Cl)cc1N1CCN(C(=O)c2cn(C)c3ccc(S(=O)(=O)N4CCCCC4)cc3c2=O)CC1 89.1 µM [inhibitor, single point]
O=C(Nc1ccc(F)c(F)c1)c1ccc(F)c(S(=O)(=O)N2CCC3(CC2)OCCO3)c1 89.1 µM [inhibitor, single point]
CCC(=O)n1nc(-c2ccc(Cl)cc2)nc1N 89.1 µM [inhibitor, single point]
O=C(Nc1nc2ccccc2n1Cc1ccccc1)c1ccc(COc2ccccc2[N+](=O)[O-])o1 0.282 µM [inhibitor, full curve, poor fit]
Oc1ccc2c(ccc3[nH]cnc32)c1 89.1 µM [inhibitor, single point]
Cc1ccccc1-c1cc(C(=O)Nc2sc(C(=O)OC(C)C)c(C)c2C#N)c2ccccc2n1 7.94 µM [inhibitor, full curve, poor fit]
O=c1cc(-c2ccccc2)[nH]n1-c1nc2ccccc2s1 56.2 µM [inhibitor, partial curve]
COc1ccc(Cc2nnc(-c3ccc(F)cc3)o2)cc1OC 63.1 µM [inhibitor, single point]
COC(=O)c1ccc(CSc2nc3ccncc3n2Cc2ccc(F)cc2)cc1 10 µM [inhibitor, partial curve, poor fit]
Cc1ccc(C2=NN=C(NC(=O)C(F)(F)F)SC2)cc1 39.8 µM [inhibitor, single point]
Cc1c(NC(=O)c2ccccc2)cccc1[N+](=O)[O-] 100 µM [inhibitor, single point]
Cc1cccc(N(C)S(=O)(=O)c2c[nH]c3ccc([N+](=O)[O-])cc23)c1 0.158 µM [inhibitor, full curve, poor fit]
Cc1cccc2cc(CN(CC3CCCO3)C(=O)c3ccncc3)c(=O)[nH]c12 (centres undefined) 89.1 µM [inhibitor, single point]
COc1ccc(/C=C/c2onc(C)c2S(=O)(=O)N2CCC(C(=O)N3CCCCC3)CC2)cc1 0.158 µM [inhibitor, full curve, poor fit]
CN1CCC(=O)N([C@H](COc2ccccc2)Cc2ccccc2)CC1 100 µM [inhibitor, single point]
COc1cc(NC(=O)c2ccco2)c(OC)cc1NC(=O)Nc1ccc(Cl)cc1 39.8 µM [inhibitor, single point]
Cc1ccc(NC(=O)Nc2ccc3c(c2)CCC3)cc1 100 µM [inhibitor, single point]
COc1ccc(-c2cc(C(F)(F)F)nc(SCCC(=O)Nc3cccc(O)c3)n2)cc1 3.55 µM [inhibitor, full curve, poor fit]
COC(=O)c1sccc1NC(=O)Nc1cccc(C)c1 56.2 µM [inhibitor, partial curve, poor fit]
O=C1CN(C(=O)COC(=O)c2ccc(N3CCCCCC3)c([N+](=O)[O-])c2)c2ccccc2N1 15.8 µM [inhibitor, partial curve, poor fit]

Retrieved one by one from the entries so far, four records:
Potency, inconclusive:
Cc1coc2c(C)c3oc(=O)c(CCC(=O)NCCC(=O)O)c(C)c3cc12 44.7 µM [inhibitor, partial curve, poor fit]
Cc1cccc(N2CCN(C(=O)/C=C/c3cccs3)CC2C)c1 (centres undefined) 0.708 µM [inhibitor, full curve, poor fit]
CCN(CCn1cccn1)C(=O)CC1C(=O)NCCN1Cc1ccc(F)c(F)c1 (centres undefined) 89.1 µM [inhibitor, single point]
CCC(C)c1ccc(S(=O)(=O)N2CCN(C(=O)COc3ccc4c(C)cc(=O)oc4c3)CC2)cc1 (centres undefined) 28.2 µM [inhibitor, single point]

Following part.

Potency, active:
COc1ccc(-c2cc3c(=O)n(CC(=O)Nc4cc(C)ccc4C)ccn3n2)cc1 44.7 µM
CC(=O)Nc1ccc(NC(=O)CSc2cn(CC(=O)N3CCOCC3)c3ccccc23)cc1 100 µM
C=C/C(C)=C/[C@@]1(C)SC(=O)C(C)=C1O 25.1 µM
O=C(COC(=O)c1ccc(S(=O)(=O)NCc2ccco2)cc1)Nc1ccc(Cl)cn1 15.8 µM
CCCNC(=S)N1CCN(C(c2ccccc2)c2ccccc2)CC1 56.2 µM
Cc1nn(-c2ccccc2)c(Cl)c1/C=N/Nc1ccc(S(=O)(=O)Nc2ccccc2C(=O)O)cc1[N+](=O)[O-] 44.7 µM
COc1ccc(OCC(=O)OCCN2C(=O)c3ccccc3C2=O)cc1 20 µM
Cc1ccc(OCc2nn3c(-c4n[nH]c5c4CCC5)nnc3s2)cc1 14.1 µM
Cc1c(O)cc2c(c1O)C(=O)CC(c1ccc(O)cc1)O2 (centres undefined) 1.26 µM

Activity change, negative = inhibition, inconclusive:
CCC(C(=O)N(C)Cc1ccccc1)n1nc(C)c2sc3ccccc3c2c1=O (centres undefined) -35.9% [inhibitor]
